The experiment concerns the target T1, Neuronatin (NNAT), endogenous in MIN6 cells (mouse (endogenous in MIN6)) (UniProt Q61979).
T1 sequence: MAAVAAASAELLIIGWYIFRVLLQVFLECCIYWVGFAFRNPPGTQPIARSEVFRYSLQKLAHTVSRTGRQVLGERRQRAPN
The experiment can be described thus: affinity purification with mass spectrometry; endogenous NNAT immunoprecipitated from MIN6 cell lysates (50 mM Tris-HCl pH 7.5, 150 mM NaCl, 1% Triton X-100, 1 mM EDTA) with rabbit polyclonal anti-NNAT and protein A-agarose, 4°C overnight; rabbit IgG as control IP; LC/MS of gel bands; proteins ranked by fold change versus control.

By UniProt entry, the sequences of proteins in these tests, tags left out.
UniProt Q9CYN2: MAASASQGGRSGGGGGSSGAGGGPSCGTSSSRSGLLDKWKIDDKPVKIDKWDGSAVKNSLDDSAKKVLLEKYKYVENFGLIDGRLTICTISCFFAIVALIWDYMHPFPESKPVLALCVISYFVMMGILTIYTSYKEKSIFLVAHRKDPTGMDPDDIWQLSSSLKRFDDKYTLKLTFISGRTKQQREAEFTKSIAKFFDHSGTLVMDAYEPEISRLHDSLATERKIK

These are yes or no findings as the source states them, for the method shown. In cells and extracts the contact can be indirect. Here binding means that the protein was enriched with, or labelled near, the bait; the list need not be complete.

Take “Signal peptidase complex subunit 2 (SPCS2), endogenous in MIN6 cells (from UniProt Q9CYN2 1-226)”: the binding entry is listed as “binds”.

B1: Signal peptidase complex subunit 1 (SPCS1), endogenous in MIN6 cells (protein, UniProt Q9D958 1-161)
chain: MARGGARGCPCPSETSASGATAEVKRSAGRPCSRYRPPQTLLLNNRLRPFRCRYRSSATMLEHLSSLPTQMDYKGQKLAEQMFQGIILFSAIVGFIYGYVAEQFGWTVYIVMAGFAFSCLLTLPPWPIYRRHPLKWLPVQDLGTEDKKSGDRKIKRHAKNN
B1: the binding entry is given as “binds”.

The values above are taken from publication PMC6063487.
